# Source: the supplement of paper PMC7666118
# By UniProt entry, the sequences of proteins in these tests, tags left out. Where a name states a change or a piece, a line headed by the entry shows the natural chain unless it says otherwise.
# UniProt Q96JZ2: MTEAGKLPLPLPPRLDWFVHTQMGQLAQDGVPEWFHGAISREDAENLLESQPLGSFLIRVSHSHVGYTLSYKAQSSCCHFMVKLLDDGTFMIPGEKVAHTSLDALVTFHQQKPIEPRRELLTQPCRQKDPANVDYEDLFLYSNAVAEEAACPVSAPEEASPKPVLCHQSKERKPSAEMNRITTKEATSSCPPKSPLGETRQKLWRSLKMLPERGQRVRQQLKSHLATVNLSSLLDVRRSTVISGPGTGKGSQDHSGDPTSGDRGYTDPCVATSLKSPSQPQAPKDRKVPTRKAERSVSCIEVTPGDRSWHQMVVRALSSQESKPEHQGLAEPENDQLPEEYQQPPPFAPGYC
# UniProt Q9Y450, whole entry: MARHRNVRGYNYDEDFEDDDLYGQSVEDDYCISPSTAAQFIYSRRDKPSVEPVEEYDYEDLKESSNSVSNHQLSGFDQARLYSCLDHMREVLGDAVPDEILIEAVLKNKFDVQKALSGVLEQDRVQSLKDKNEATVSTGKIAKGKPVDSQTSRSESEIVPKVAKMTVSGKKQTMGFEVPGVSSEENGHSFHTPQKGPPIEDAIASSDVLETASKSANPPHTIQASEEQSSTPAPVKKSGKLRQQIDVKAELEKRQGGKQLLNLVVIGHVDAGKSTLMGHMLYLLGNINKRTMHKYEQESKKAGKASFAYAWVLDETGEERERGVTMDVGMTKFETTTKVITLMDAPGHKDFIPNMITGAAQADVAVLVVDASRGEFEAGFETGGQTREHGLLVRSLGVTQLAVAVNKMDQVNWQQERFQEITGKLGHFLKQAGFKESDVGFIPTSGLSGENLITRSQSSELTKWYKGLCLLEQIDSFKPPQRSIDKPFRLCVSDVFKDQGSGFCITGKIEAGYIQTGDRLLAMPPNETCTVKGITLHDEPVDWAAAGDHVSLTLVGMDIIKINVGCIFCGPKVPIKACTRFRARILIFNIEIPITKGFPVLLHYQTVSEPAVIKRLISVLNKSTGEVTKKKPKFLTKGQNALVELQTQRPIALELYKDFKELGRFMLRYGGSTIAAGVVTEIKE
# UniProt Q9UKN8: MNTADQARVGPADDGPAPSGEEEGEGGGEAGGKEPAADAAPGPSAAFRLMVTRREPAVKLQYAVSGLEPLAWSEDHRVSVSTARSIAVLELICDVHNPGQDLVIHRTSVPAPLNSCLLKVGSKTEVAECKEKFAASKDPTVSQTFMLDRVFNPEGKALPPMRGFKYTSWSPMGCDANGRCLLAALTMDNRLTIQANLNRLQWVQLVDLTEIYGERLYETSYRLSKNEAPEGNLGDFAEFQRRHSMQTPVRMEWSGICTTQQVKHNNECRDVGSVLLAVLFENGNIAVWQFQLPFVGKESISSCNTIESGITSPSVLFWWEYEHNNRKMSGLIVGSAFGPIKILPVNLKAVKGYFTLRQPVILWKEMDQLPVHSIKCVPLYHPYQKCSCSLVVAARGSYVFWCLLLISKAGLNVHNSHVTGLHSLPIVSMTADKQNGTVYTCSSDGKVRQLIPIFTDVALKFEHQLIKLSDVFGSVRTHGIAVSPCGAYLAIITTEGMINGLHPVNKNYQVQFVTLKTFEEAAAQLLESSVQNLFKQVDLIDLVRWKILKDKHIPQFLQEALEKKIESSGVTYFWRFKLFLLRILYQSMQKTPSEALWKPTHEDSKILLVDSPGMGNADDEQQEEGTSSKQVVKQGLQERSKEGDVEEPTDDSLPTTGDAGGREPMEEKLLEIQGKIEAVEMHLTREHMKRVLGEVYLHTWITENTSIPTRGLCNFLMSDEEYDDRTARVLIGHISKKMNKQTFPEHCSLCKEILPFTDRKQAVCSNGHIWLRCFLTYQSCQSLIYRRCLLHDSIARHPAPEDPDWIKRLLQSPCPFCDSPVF
# UniProt P05114: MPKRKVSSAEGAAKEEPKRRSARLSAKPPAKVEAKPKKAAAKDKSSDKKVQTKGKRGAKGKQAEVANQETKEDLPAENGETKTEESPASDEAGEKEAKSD
# UniProt P46976: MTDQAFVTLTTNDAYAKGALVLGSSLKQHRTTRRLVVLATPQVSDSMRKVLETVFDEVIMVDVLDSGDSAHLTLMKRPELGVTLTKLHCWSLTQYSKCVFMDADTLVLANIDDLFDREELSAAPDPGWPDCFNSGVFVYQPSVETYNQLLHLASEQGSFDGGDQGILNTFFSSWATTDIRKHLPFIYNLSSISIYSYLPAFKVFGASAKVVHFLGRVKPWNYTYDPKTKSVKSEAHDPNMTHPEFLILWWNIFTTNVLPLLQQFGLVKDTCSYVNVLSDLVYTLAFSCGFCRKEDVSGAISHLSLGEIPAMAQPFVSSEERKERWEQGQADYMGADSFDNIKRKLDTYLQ
# UniProt O43390: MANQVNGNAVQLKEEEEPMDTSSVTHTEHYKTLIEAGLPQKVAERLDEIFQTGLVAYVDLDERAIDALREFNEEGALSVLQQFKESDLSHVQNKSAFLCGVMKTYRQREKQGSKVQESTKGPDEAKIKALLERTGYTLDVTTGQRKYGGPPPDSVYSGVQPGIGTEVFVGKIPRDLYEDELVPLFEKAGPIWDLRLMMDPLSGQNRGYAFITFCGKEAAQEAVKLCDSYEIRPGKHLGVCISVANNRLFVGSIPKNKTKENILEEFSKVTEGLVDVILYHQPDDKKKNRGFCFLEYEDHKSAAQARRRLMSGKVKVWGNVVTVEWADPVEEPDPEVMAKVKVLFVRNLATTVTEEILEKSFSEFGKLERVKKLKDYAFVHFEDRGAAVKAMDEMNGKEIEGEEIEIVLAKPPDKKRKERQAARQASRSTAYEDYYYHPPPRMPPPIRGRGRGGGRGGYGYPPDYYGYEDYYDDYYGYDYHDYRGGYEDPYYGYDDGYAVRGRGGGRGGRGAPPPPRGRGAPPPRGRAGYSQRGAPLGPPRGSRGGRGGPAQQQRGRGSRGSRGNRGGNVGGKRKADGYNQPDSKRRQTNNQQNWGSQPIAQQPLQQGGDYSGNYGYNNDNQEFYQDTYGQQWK
# UniProt P32780: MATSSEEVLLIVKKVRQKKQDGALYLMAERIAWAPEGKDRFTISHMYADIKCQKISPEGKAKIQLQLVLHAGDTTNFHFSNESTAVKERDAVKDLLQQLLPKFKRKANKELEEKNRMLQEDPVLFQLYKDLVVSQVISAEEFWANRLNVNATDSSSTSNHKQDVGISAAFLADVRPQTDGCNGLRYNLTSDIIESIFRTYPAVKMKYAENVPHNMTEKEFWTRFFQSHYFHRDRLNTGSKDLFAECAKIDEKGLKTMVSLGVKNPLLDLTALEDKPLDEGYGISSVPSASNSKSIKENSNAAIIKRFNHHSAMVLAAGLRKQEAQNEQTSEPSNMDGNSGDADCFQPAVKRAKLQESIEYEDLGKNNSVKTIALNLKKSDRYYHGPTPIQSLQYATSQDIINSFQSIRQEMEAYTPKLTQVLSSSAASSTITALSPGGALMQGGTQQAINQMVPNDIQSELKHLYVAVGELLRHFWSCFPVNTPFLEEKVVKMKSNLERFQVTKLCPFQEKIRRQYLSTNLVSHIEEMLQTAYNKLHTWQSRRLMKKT
# UniProt Q8WUI4: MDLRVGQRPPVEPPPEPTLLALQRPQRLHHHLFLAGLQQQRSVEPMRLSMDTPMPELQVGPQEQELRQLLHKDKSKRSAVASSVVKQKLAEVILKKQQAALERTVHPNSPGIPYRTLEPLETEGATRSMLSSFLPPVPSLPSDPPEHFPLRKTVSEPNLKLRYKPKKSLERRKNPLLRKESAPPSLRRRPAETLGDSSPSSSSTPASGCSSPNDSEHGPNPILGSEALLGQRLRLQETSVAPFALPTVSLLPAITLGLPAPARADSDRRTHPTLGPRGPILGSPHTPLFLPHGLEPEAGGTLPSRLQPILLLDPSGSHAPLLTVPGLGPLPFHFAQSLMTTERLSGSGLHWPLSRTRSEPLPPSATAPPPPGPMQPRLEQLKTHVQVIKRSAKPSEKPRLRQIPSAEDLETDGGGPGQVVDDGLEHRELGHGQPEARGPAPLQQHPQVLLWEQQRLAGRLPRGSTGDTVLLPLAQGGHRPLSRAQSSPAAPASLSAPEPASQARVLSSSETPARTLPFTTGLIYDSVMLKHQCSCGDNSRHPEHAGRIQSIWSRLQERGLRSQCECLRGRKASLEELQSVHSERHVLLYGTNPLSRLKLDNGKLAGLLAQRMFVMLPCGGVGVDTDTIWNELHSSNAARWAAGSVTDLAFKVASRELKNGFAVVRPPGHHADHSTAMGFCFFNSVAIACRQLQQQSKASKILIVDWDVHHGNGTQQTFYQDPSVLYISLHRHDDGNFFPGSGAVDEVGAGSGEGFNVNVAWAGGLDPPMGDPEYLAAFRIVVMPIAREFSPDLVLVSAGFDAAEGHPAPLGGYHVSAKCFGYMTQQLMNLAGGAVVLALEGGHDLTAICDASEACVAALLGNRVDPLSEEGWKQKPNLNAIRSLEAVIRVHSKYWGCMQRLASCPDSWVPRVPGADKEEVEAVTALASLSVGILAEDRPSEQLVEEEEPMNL
# UniProt Q9UII4: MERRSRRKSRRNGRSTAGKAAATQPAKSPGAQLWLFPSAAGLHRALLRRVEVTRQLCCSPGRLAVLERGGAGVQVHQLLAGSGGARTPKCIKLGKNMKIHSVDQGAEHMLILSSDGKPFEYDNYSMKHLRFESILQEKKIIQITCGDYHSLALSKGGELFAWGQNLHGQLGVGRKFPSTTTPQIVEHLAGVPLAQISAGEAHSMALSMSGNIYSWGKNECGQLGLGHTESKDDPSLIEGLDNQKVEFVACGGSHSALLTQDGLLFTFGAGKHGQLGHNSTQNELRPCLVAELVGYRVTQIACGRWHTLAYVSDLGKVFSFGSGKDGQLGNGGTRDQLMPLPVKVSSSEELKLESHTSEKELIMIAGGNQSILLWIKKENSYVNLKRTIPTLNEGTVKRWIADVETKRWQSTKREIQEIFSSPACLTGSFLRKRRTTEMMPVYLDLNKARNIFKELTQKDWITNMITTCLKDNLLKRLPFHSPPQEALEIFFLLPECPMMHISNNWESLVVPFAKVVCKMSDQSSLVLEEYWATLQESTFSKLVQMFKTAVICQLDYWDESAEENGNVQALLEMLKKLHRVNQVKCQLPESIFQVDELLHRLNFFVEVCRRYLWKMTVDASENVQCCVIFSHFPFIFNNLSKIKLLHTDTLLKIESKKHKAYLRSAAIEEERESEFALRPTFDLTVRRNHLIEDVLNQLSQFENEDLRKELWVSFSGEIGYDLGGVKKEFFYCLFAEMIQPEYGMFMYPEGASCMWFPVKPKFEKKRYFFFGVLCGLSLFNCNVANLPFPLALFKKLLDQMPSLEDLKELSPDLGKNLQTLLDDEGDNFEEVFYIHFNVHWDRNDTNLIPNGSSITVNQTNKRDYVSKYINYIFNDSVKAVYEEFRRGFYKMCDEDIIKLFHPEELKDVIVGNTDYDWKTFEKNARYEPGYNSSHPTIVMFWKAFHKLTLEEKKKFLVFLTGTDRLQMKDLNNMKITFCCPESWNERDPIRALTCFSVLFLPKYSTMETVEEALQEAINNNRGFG
# UniProt O94992, whole entry: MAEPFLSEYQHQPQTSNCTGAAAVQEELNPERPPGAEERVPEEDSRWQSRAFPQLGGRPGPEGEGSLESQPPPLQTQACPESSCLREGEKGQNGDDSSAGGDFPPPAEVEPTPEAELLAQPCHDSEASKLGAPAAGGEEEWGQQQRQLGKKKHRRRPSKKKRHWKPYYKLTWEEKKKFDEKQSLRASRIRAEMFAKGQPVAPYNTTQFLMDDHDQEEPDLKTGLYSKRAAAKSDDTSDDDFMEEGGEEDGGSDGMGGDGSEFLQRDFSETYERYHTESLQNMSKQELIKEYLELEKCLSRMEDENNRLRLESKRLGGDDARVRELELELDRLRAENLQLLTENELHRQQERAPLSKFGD
# UniProt Q7Z5G4, whole entry: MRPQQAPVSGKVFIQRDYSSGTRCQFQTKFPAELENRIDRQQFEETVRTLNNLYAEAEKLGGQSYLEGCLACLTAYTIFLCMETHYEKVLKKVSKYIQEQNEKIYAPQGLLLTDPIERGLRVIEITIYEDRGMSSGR
# UniProt Q8TAA5: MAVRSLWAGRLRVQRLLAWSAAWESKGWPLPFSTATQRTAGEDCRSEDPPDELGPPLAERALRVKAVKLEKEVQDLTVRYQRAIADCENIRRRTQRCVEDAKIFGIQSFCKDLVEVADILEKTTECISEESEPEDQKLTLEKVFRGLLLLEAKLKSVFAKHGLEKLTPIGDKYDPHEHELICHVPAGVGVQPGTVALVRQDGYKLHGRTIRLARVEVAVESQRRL
# UniProt P07910: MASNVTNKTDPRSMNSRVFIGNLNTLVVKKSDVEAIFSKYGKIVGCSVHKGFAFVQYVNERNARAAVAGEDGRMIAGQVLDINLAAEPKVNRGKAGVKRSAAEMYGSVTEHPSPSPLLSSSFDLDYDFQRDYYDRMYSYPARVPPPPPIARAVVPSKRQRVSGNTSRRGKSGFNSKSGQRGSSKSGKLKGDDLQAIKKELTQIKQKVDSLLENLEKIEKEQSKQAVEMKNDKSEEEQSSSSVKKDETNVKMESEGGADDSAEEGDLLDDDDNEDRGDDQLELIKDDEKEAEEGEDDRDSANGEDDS
# The other results are listed elsewhere or left out.
# Compound: COc1ccc(Cn2ccc3cc(C)c(C(=O)NO)cc32)cc1
# Test: dose-dependent thermal stabilisation call (2D-TPP, DLPTP, 10% FDR) (binary (1 = stabilised)); higher = stabilised by the compound
# Conditions: system: HL-60 intact cells; concentration range 0.04-10 µM
# Experimental: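 2D thermal proteome profiling in intact HL-60 cells treated with BRD-3811 (0, 0.04, 0.29, 2, 10 uM) for 90 min at 37 C, then heated 3 min at one of 12 temperatures (42-63.9 C). Soluble protein was quantified by TMT10 MS. The value is the DLPTP call of the paper: dose-dependent thermal stabilisation over all temperatures at 10% FDR (F-test of a dose-response against a flat model); one experiment, one call per tested protein.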
row,Target,dose-dependent thermal stabilisation call
1,HSH2D (UniProt Q96JZ2),inactive: 0
2,HNRNPM (UniProt P52272),inactive: 0
3,HARS (UniProt P12081),inactive: 0
4,GYS1 (UniProt P13807),inactive: 0
5,HELZ (UniProt P42694),inactive: 0
6,HDLBP (UniProt Q00341),inactive: 0
7,HIP1 (UniProt O00291),inactive: 0
8,HBS1L (UniProt Q9Y450),inactive: 0
9,GTF3C4 (UniProt Q9UKN8),inactive: 0
10,HLA-DRB1 (UniProt P01911),inactive: 0
11,H1FX (UniProt Q92522),inactive: 0
12,GTSF1 (UniProt Q8WW33),inactive: 0
13,HCG_20857,inactive: 0
14,HIST3H2BB (UniProt Q8N257),inactive: 0
15,HNRNPL (UniProt P14866),inactive: 0
16,HM13 (UniProt Q8TCT9),inactive: 0
17,GSTK1 (UniProt Q9Y2Q3),inactive: 0
18,HIATL1 (UniProt Q5SR56),inactive: 0
19,HMGN1 (UniProt P05114),inactive: 0
20,H2AFY (UniProt O75367),inactive: 0

row,Target,dose-dependent thermal stabilisation call
1,GOLGA2 (UniProt Q08379),inactive: 0
2,GYG1 (UniProt P46976),inactive: 0
3,GPR126 (UniProt Q86SQ4),inactive: 0
4,HIST1H2AD (UniProt P20671),inactive: 0
5,HIF1AN (UniProt Q9NWT6),inactive: 0
6,HNRNPR (UniProt O43390),inactive: 0
7,GPI (UniProt P06744),inactive: 0
8,GTF2H1 (UniProt P32780),inactive: 0
9,GOLPH3 (UniProt Q9H4A6),inactive: 0
10,HDAC7 (UniProt Q8WUI4),inactive: 0
11,GPKOW (UniProt Q92917),inactive: 0
12,HSCB (UniProt Q8IWL3),inactive: 0
13,HMHA1 (UniProt Q92619),inactive: 0
14,HERC5 (UniProt Q9UII4),inactive: 0
15,HEXIM1 (UniProt O94992),inactive: 0
16,GSPT1 (UniProt P15170),inactive: 0
17,HSPBP1 (UniProt Q9NZL4),inactive: 0
18,GOLGA7 (UniProt Q7Z5G4),inactive: 0
19,GRPEL2 (UniProt Q8TAA5),inactive: 0
20,HNRNPC (UniProt P07910),inactive: 0

# Rewritten with tabs: entries from further up
row	Target	dose-dependent thermal stabilisation call
18	HIATL1 (UniProt Q5SR56)	inactive: 0
4	HIST1H2AD (UniProt P20671)	inactive: 0
